Source: the supplement of paper PMC3334620
Over roughly 33,000 sequences, “E-score (-0.5 to 0.5)” has its median near -0.016; the highest 2% begin near 0.3. This is one part of the list.

molecular target: T1, Yer184c (UniProt P39961); test: PBM E-score (8-mer binding enrichment) (E-score (-0.5 to 0.5)); higher = stronger / more preferred TF binding; details: protein concentration: 100 nM; construct: GST-full length
T1 sequence: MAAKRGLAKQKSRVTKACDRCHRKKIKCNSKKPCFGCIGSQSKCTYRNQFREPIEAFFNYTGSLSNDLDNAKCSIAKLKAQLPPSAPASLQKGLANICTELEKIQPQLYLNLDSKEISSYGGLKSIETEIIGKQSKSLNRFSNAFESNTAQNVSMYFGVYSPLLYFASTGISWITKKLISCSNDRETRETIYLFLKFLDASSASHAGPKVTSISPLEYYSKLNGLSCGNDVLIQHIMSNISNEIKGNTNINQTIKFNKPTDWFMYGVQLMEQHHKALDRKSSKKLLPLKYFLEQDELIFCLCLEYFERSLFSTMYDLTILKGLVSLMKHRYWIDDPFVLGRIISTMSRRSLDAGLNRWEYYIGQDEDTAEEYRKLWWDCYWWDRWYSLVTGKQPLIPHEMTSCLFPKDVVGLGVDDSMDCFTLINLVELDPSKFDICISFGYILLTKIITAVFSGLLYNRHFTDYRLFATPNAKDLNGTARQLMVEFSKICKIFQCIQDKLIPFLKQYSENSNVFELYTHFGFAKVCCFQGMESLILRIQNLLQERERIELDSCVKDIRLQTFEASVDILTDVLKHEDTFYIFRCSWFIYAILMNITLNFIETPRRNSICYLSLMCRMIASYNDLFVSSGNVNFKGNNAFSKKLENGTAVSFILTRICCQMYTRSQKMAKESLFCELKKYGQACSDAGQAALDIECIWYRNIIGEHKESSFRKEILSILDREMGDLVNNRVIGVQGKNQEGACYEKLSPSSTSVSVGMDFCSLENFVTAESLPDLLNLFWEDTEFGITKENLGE
Description: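 Universal 'all 10-mer' protein binding microarrays (Agilent AMADID 015681) probed with GST-tagged S. cerevisiae TFs (full-length or DBD) made by in vitro transcription/translation (PURExpress), about 100-200 nM. Bound TF was detected with fluorescent anti-GST. Each ungapped 8-mer (which stands for itself and its reverse complement) is scored by the PBM enrichment score (E-score), a modified Wilcoxon-Mann-Whitney statistic from -0.5 to +0.5, computed with the Universal PBM Analysis Suite. Scale: above 0.35 generally sequence-specific binding.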

| Sequence | PBM E-score |
| --- | --- |
| CAGCATTA | -0.138 |
| GGCTATAC | -0.0115 |
| AACTTTTG | 0.0872 |
| GCAATTAA | 0.144 |
| AAGGAGAG | -0.349 |
| CAAACATA | -0.0664 |
| ACGTGATC | 0.0471 |
| ATGTTCGG | 0.214 |
| AGACCAAA | 0.149 |
| CTATACTA | 0.0798 |
| CGCTGGGC | -0.206 |
| ACAAATAA | 0.105 |
| CCACTCGC | -0.173 |
| CAGTCGGG | -0.0768 |
| TACGCACA | -0.08 |
| GGACCTGA | -0.0219 |
| AAAGCTAA | 0.0933 |
| ATGCAGGG | -0.225 |
| CGATCGCA | 0.0194 |
| AGGTCCGC | -0.118 |
| ACAAATTG | 0.0238 |
| ATATCCGG | 0.374 |
| CCTGGTTA | -0.178 |
| TCTCAGCA | -0.116 |
| GCTATCAC | -0.179 |

| Sequence | PBM E-score |
| --- | --- |
| GTACGCGA | -0.209 |
| TGGCCACA | -0.192 |
| AGGATGCA | -0.0542 |
| ATCCGTTA | 0.367 |
| AGTAATCA | 0.0992 |
| CAAAGACA | 0.0916 |
| GAACGCAC | 0.0787 |
| ACGTCCTA | -0.144 |
| TATTCGGA | 0.356 |
| GAACCGGA | 0.349 |
| CGACCGAC | -0.00614 |
| TGGGCGAA | -0.0741 |
| AATCTAGT | 0.192 |
| AGGGGGAA | -0.287 |
| ACTTCTTC | -0.0371 |
| AAGGTCAC | -0.18 |
| CCCCTCTA | -0.28 |
| CCTGCTGA | 0.0351 |
| TCAGAAAA | -0.0371 |
| GAGCAAGC | 0.0714 |
| AACTACAG | -0.0177 |
| TACGGTGA | 0.00983 |
| GCCAGGGC | -0.215 |
| CTCTGCCC | -0.0854 |
| AAGGACTA | -0.231 |

| Sequence | PBM E-score |
| --- | --- |
| CGCCCTCC | -0.202 |
| AGCGGGCC | 0.0352 |
| CCGAACAA | 0.322 |
| AAGGTTGA | -0.015 |
| CTCAGCAG | -0.157 |
| CGTTCACA | 0.0638 |
| CACCAGGA | 0.0515 |
| CGCATTGA | 0.0817 |
| ATTCAGGG | -0.0249 |
| CGGATGAC | 0.151 |
| CTCTGAAC | -0.187 |
| CGTATTAC | -0.0174 |
| GACCCTAA | -0.0197 |
| GAGTTTAA | 0.244 |
| CGCTTGAC | -0.0949 |
| GGCCCTGA | -0.164 |
| TATGTTAA | 0.173 |
| CGCGACTA | 0.033 |
| AAAAGACT | -0.15 |
| AATGTCAT | 0.105 |
| CGCTCTAA | -0.0807 |
| GACGAGAC | -0.158 |
| TACTTGGA | 0.0973 |
| ATACAGCA | 0.0786 |
| GTGACGGA | -0.0455 |

| Sequence | PBM E-score |
| --- | --- |
| CAGCCGGG | 0.127 |
| ATCGGACG | 0.0919 |
| ACTAGCGG | -0.0521 |
| GGTGAAGA | -0.0273 |
| CAAGGAAA | -0.0602 |
| TAGAGTCA | -0.372 |
| ATGCTCCC | -0.212 |
| GTTTTCCA | 0.174 |
| CCCACTCG | -0.165 |
| ATTAGTTC | 0.0577 |
| ACCTTTCC | 0.132 |
| CGAGGGGC | -0.222 |
| CGCAGGAC | -0.138 |
| CATATATG | -0.00483 |
| AAAAGTTG | 0.109 |
| TAGGGCCA | -0.28 |
| TAGGCTGA | -0.075 |
| CGCCAATC | -0.0233 |
| ACCGTCAG | -0.104 |
| CAAACTCA | -0.0219 |
| CCCCGCCA | 0.0177 |
| AGTATGCG | -0.0901 |
| CAGTTATG | -0.0637 |
| AGGCGTCG | -0.0441 |
| AAATAATA | 0.276 |

| Sequence | PBM E-score |
| --- | --- |
| AACGTGCT | -0.258 |
| GCACCCGA | 0.0984 |
| AGACTTAT | -0.0647 |
| AGCGGTTG | -0.00156 |
| ACCAACGG | 0.0515 |
| CGGCAGAC | 0.102 |
| ATGGTGCC | -0.117 |
| AGCAGGGG | -0.28 |
| GGACCCGA | 0.064 |
| GTGACAAA | -0.0189 |
| TAAATACA | 0.137 |
| TCGTGAAA | 0.022 |
| TGTGCTAA | 0.252 |
| GGACTTTA | 0.156 |
| AACTCTCG | -0.0335 |
| AACCTTAG | -0.0918 |
| GCACTAAC | -0.084 |
| GAAAGGGA | -0.0492 |
| AGCGGCTG | -0.00263 |
| AGCACGAC | -0.212 |
| AATTTTGT | 0.207 |
| AATTCAGC | -0.0404 |
| ATCCTGGC | -0.0823 |
| CACAGTCC | -0.225 |
| CTGTGCTC | 0.141 |

Two consecutive records out of the list so far, quoted:

| Sequence | PBM E-score |
| --- | --- |
| AACGTGCT | -0.258 |
| GCACCCGA | 0.0984 |

Carrying on.

| Sequence | PBM E-score |
| --- | --- |
| GAACTCAA | 0.0685 |
| CGACTTGA | -0.00564 |
| TGACAGCA | 0.0714 |
| ACGACGTG | -0.243 |
| CACACTAG | -0.0414 |
| GGCTACAA | -0.0116 |
| ACGAATGA | 0.189 |
| AATCGGAC | 0.152 |
| CCACTGTA | -0.0881 |
| ACTGAGCG | -0.147 |
| GGCGTGAA | -0.0177 |
| CAGCGGCA | -0.0167 |
| GCGTATCA | 0.0138 |
| AAGTCCAC | -0.176 |
| ACCAGTGA | -0.131 |
| GAATTGAA | 0.176 |
| CTAGCCTC | -0.212 |
| TACTTACA | 0.0552 |
| TAATGAAA | 0.211 |
| AGGACATC | 0.13 |
| CAGGCGAG | -0.203 |
| ATGGTGGG | -0.243 |
| CGCGCAGA | 0.171 |
| GTTCAAGA | 0.0788 |
| GCCTACCC | -0.254 |

| Sequence | PBM E-score |
| --- | --- |
| ATCGGAAA | 0.344 |
| GCCCTACC | -0.21 |
| CCGCCGTC | -0.00239 |
| ATGGAGCA | 0.0234 |
| AACTCCTC | -0.0649 |
| GCGGCATA | 0.115 |
| ACCCAAAA | 0.0213 |
| CAAGGCAA | -0.0285 |
| GGTACGTA | -0.179 |
| TATATACA | 0.164 |
| ACCCGGCG | 0.198 |
| AGCAGACT | 0.0244 |
| CCATATCC | -0.166 |
| AGGGCGAT | -0.247 |
| GCCTTCGC | -0.111 |
| CGTGCGAA | 0.121 |
| ACAGGCTG | -0.272 |
| ACGGGAAA | 0.159 |
| GACAAGGC | -0.171 |
| AATAACTG | 0.0163 |
| GCTCGAGC | 0.101 |
| CTATTTCC | 0.233 |
| CAGACTGA | 0.0471 |
| CACACCCC | -0.283 |
| ACATACGT | -0.133 |

An excerpt of these results, bar-delimited.
Sequence | PBM E-score
GGTACGTA | -0.179
TATATACA | 0.164
ACCCGGCG | 0.198
AGCAGACT | 0.0244
CCATATCC | -0.166

Remaining list, next part:

| Sequence | PBM E-score |
| --- | --- |
| ATAGGTCA | 0.099 |
| AGGGGGTG | -0.288 |
| CGCCTGAA | 0.115 |
| GAATTTAC | 0.152 |
| ACAATGAC | -0.123 |
| TATTAACA | 0.239 |
| AGAAGTGG | -0.142 |
| CACGATGG | -0.222 |
| AATGCGAG | 0.00618 |
| GCACCTAA | 0.0422 |
| AGTCGGTG | -0.151 |
| AAGGTAAA | 0.118 |
| CGCGTCGC | -0.0204 |
| ACCATTAT | -0.045 |
| TGACATAA | 0.137 |
| AACAATCT | 0.0138 |
| ACCGCAGG | 0.132 |
| AACTTCTT | -0.0832 |
| CATGTGAC | -0.125 |
| AACATAGA | -0.0943 |
| ACGCGAAT | -0.0916 |
| GGACTAGA | 0.0413 |
| CGCCCTCA | -0.217 |
| CGCAAGCA | -0.0264 |
| ACATGTAT | 0.0291 |

| Sequence | PBM E-score |
| --- | --- |
| AGATGACC | -0.0421 |
| CTTAACCA | -0.0614 |
| ATGAAGGC | -0.0969 |
| TAAACGAA | 0.0902 |
| AGGGCCGA | 0.197 |
| CGGTAGCA | -0.0782 |
| ACGCGGCA | 0.096 |
| CAGGATGC | -0.0823 |
| AAGCATGC | -0.085 |
| AGCTGTGC | -0.231 |
| GAAAAGAA | 0.133 |
| ACTGAACA | 0.237 |
| GAGGATAA | 0.0354 |
| AGGTAGCG | -0.0168 |
| TACACATA | -0.0624 |
| AGGGCTGA | -0.113 |
| AGCAAGAG | -0.115 |
| ACGCCGGC | 0.423 |
| GCATATGC | -0.157 |
